In PubChem BioAssay AID1688 (National Center for Advancing Translational Sciences (NCATS), 2009):
About 2,400 (1.1%) of roughly 220,000 compounds were called active. This list was built around the results that the source calls inconclusive (neither active nor inactive); the mix of calls is not that of the screen. Calls come from the whole dose curve; as a rule, active = well fitted inhibition curve with a large enough effect; inconclusive = small, poorly fitted or top-dose-only effect, or effect the other way; inactive = no such curve, though single readings can be large or run the other way. Where the call is inconclusive, the potency comes from a doubtful curve fit.

assay: qHTS Multiplex Assay to Identify Dual Action Probes in a Cell Model of Huntington: Aggregate Formation (GFP); details: PC12 HttQ103-GFP aggregates, Acumen cytometry, 40 h; activity change, negative = inhibition: at 46.1 µM (top of the series) unless noted; note: nearly all actives have a fitted effect of over 60% in size
In short: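 Aggregate formation scored by laser-scanning cytometer (488 excitation, 500–530 emission) in lysed PC12 cells expressing Q103-GFP after 100 nM tebufenozide induction; library tested in dose series, with ATPLite reagent added in the multiplex.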
% is set by controls: 0 for no effect and ±100 for the full control effect; potency is the fitted concentration of half-maximal effect.

| SMILES | activity change, negative = inhibition | Potency |
| --- | --- | --- |
| O=C(O)CCN1C(=O)c2ccc(NC(=O)CSc3ccccc3)cc2C1=O | inactive: -0.773% | – |
| CC(C)N(Cc1nc(-c2ccccc2)no1)C(=O)c1ccc(Br)o1 | inactive: 3.7% | – |
| S=C(Nc1ccccc1)N1CCN(c2ccccn2)CC1 | inactive: 17.8% [at 9.22 µM] | – |
| O=C(Nc1ccc2c(c1)OCO2)c1ccccc1SCC(=O)N1CCCC1 | – | inconclusive: 0.501 µM [activator, partial curve, poor fit] |
| Cc1ccc(S(=O)(=O)Nc2cc(C(C(=O)OC(C)C)C(=O)C(F)(F)F)c(O)c3ccccc23)c(C)c1 (stereo unspecified) | – | inconclusive: 5.62 µM [activator, partial curve] |
| Cc1ccc(NC(=O)c2cccc(N3C(=O)CCC3=O)c2)nc1 | inactive: -3.06% | – |
| O=C(Nc1ccc(S(=O)(=O)N2CCCCC2)cc1)c1ccc(CN2CCOCC2)cc1 | – | inconclusive: 11.2 µM [inhibitor, single point] |
| CCc1ccc(OCC(=O)Nc2ccc(-c3cc4ccccc4oc3=O)c(OC)c2)cc1 | inactive: 15.1% | – |
| COc1ccc(/C=C(/CC(=O)NCc2ccc(Cl)cc2)c2nc3ccccc3s2)cc1 | – | inconclusive: 1.26 µM [inhibitor, single point] |
| CC(C)(C)c1ccc(-c2nnc3sc(-c4ccccn4)nn23)cc1 | inactive: -11.9% | – |
| O=C1C2C3C=CC(C3)C2C(=O)N1CNc1ccccn1 (stereo unspecified) | inactive: 0.743% | – |
| O=C(NCC1OCCc2ccccc21)c1ccc(NC(=O)c2cccc(Br)c2)cc1 (stereo unspecified) | – | inconclusive: 1.26 µM [activator, single point] |
| C=CCn1c(C)cc(C(=O)CSc2nc3ccccc3[nH]2)c1C | – | inconclusive: 12.6 µM [inhibitor, partial curve] |
| COCCN1C2=C(COC(C)(C)C2)C(=S)NC1c1ccccc1 (stereo unspecified) | inactive: 23.8% [at 9.22 µM] | – |
| COc1ccc(C(CC(=O)Nc2ccc(F)cc2)c2ccccc2)cc1 (stereo unspecified) | – | inconclusive: 35.5 µM [inhibitor, single point] |
| Cc1ccc(S(=O)(=O)NCCSCc2ccco2)cc1 | inactive: 2.75% [at 9.22 µM] | – |
| COc1cccc(S(=O)(=O)NCc2ccc(C(=O)Nc3cccc(Cl)c3)cc2)c1 | – | inconclusive: 12.6 µM [inhibitor, single point] |
| CC(C)(C)OC(=O)NCC(=O)Oc1cc2oc(=O)cc(-c3ccccc3)c2cc1Cl | – | active: 3.98 µM |
| COc1ccc2c(c1)c(CC(=O)Nc1ccccc1OC)c(C)n2C(=O)c1ccc(Cl)cc1 | inactive: 4.96% | – |
| O=C(NCc1ccncc1)/C(=C\c1ccc(F)cc1)NC(=O)c1ccccc1 | inactive: 11.4% | – |
| CCOc1ccc(N/C(C)=C\C(=O)c2ccc3c(c2)OCCO3)cc1 | inactive: 4.41% [at 9.22 µM] | – |
| COc1cccc(CSc2nnc(CSc3nc4nc(C)cc(C)n4n3)s2)c1 | inactive: -30.3% | – |
| Cc1ccc(-n2cc(C(=O)c3ccc(N4CCN(C)CC4)cc3)nn2)cc1Cl | – | inconclusive: 0.562 µM [activator, partial curve, poor fit] |
| Cn1nc(CC(=O)Nc2cccc3ncccc23)c2ccccc2c1=O | – | inconclusive: 5.62 µM [inhibitor, partial curve] |

| SMILES | activity change, negative = inhibition | Potency |
| --- | --- | --- |
| COC(=O)C(CC(C)C)Oc1ccc2c(C)cc(=O)oc2c1 (stereo unspecified) | – | inconclusive: 2.82 µM [inhibitor, single point] |
| CCCCOc1ccc(C2NC(=O)NC(C)=C2C(C)=O)cc1OCC (stereo unspecified) | inactive: -1.39% | – |
| CCCCOc1cccc(NC(=O)CSc2nncn2C)c1 | – | inconclusive: 6.31 µM [inhibitor, single point] |
| O=S(=O)(c1cccc(NC(=S)N2CCN(c3ccccc3F)CC2)c1)C(F)F | – | inconclusive: 35.5 µM [inhibitor, single point] |
| COc1ccc(-c2cnnc(N/N=C/c3c(C)nn(-c4ccccc4)c3Cl)n2)cc1 | – | inconclusive: 5.62 µM [activator, single point] |
| COc1c(F)c(F)c(C(=O)Nc2ccccc2N2CCN(C(C)=O)CC2)c(F)c1F | inactive: 5.11% | – |
| CCCCc1c(C)nn(-c2nnc3c4ccccc4n(C)c3n2)c1C | – | inconclusive: 25.1 µM [inhibitor, single point] |
| CN1/C(=C\C(=O)C[n+]2cccc(Br)c2)C(C)(C)c2ccccc21 | – | inconclusive: 17.8 µM [inhibitor, single point] |
| CC(C)(C)C(=O)Cn1ncc(Br)c(Br)c1=O | inactive: 14.1% [at 9.22 µM] | – |
| O=C(NNc1ccccc1[N+](=O)[O-])Nc1ccc(Cl)c(Cl)c1 | – | active: 11.2 µM |
| COCCC(=O)N1CCCC(CCC(=O)NCc2ccc(F)c(F)c2)C1 (stereo unspecified) | inactive: 12.7% [at 9.22 µM] | – |
| C/C=C(/C)C(=O)Nc1cccc(C2=NOC3(C2)C[C@@H](C(N)=O)N(C(=O)c2ccc(OC)cc2)C3)c1 (stereo partly specified) | – | inconclusive: 1.41 µM [activator, partial curve] |
| COc1ccc(NS(=O)(=O)c2ccc(O)c(NC(=O)c3cc4c(C)nn(-c5ccc(F)cc5)c4s3)c2)cc1 | – | inconclusive: 35.5 µM [inhibitor, single point] |
| OC(COc1ccc2c(c1)CCC2)CN1CCN(c2ccccc2F)CC1 (stereo unspecified) | – | inconclusive: 35.5 µM [inhibitor, single point] |
| Cc1cc(C(=O)CSc2nnnn2-c2ccccc2)c(C)n1CC1CCCO1 (stereo unspecified) | – | inconclusive: 35.5 µM [activator, single point] |
| CCN(c1ccccc1)S(=O)(=O)c1cc(C(=O)Nc2ccc(Br)cc2)ccc1F | – | inconclusive: 20 µM [inhibitor, partial curve, poor fit] |
| CCN1/C(=C/c2cc[n+](CCCS(=O)(=O)[O-])c3ccccc23)Sc2ccccc21 | inactive: -29.4% | – |
| COc1ccc(-n2c(SCC(=O)NCC3CCCO3)nc3ccccc32)cc1 (stereo unspecified) | – | inconclusive: 1 µM [activator, full curve] |
| Cc1cccc(OCCn2c(S(=O)(=O)O)nc3ccccc32)c1 | inactive: 12.4% | – |
| FC(F)(F)c1cccc(N2CCN(C(=S)NC3CCCC3)CC2)c1 | – | inconclusive: 35.5 µM [inhibitor, single point] |
| Cc1cc(=O)n(CC(C)O)c(O)c1C#N (stereo unspecified) | inactive: 9.66% | – |
| COc1cc(NC(=O)c2ccnn2C)c(OC)cc1Cl | – | inconclusive: 35.5 µM [activator, single point] |
| CN1C(=O)CSc2ccc(NC(=O)Nc3ccccn3)cc21 | – | inconclusive: 10 µM [activator, partial curve] |
| CCSc1oc(-c2cccs2)nc1S(=O)(=O)c1ccccc1 | – | active: 12.6 µM |

Among those listed so far, these have a furan ring, fused or not.

| SMILES | activity change, negative = inhibition | Potency |
| --- | --- | --- |
| CC(C)N(Cc1nc(-c2ccccc2)no1)C(=O)c1ccc(Br)o1 | inactive: 3.7% | – |
| Cc1ccc(S(=O)(=O)NCCSCc2ccco2)cc1 | inactive: 2.75% [at 9.22 µM] | – |

(continued)

| SMILES | activity change, negative = inhibition | Potency |
| --- | --- | --- |
| O=C(N/N=C/c1c[nH]c2ccccc12)c1cc(-c2cccc3ccccc23)n[nH]1 | – | inconclusive: 0.562 µM [inhibitor, partial curve, poor fit] |
| Nc1ccc(C(=O)N/N=C/c2sc(N3CCOCC3)nc2-c2ccccc2)cc1 | – | inconclusive: 5.62 µM [activator, single point] |
| O=c1c2ccccc2[nH]c(=S)n1Cc1cccnc1 | inactive: -10.9% | – |
| CC(C)=CCc1c(O)ccc(C(=O)Cc2ccccc2)c1O | – | inconclusive: 35.5 µM [inhibitor, single point] |
| C=CCNC(=S)NNC(=O)c1ccc(OCCC)cc1 | – | inconclusive: 12.6 µM [inhibitor, single point] |
| CCCc1cc(=O)oc2cc(C)cc(OC(=O)c3ccco3)c12 | – | inconclusive: 35.5 µM [inhibitor, single point] |
| c1ccc(CSc2ccc(-c3ccccn3)nn2)cc1 | – | inconclusive: 25.1 µM [inhibitor, single point] |
| CCN(CC)S(=O)(=O)c1cccc(C(=O)N/N=C/c2ccc(OC)c(O)c2)c1 | inactive: 24.7% | – |
| CCc1ccc(NC(=O)/C(C#N)=C/c2cc3ccc(C)cc3nc2N2CCOCC2)cc1 | – | inconclusive: 20 µM [inhibitor, single point] |
| O=C1CC(c2ccc(Cl)cc2)SC(N(c2ccccc2)c2ccccc2)=N1 (stereo unspecified) | – | inconclusive: 35.5 µM [inhibitor, single point] |
| O=[N+]([O-])c1cccc(-c2nc(-c3cccs3)c(-c3cccs3)[nH]2)c1 | – | inconclusive: 20 µM [inhibitor, single point] |
| CNc1nc(C)c(C(C)(C)C)s1 | inactive: 3.7% [at 9.22 µM] | – |
| C=CCc1ccccc1OCC(O)CN1CCN(c2ccc(OC)cc2)CC1 (stereo unspecified) | – | inconclusive: 0.708 µM [inhibitor, single point] |
| O=C1CCCN1c1ccc(S(=O)(=O)NCCOc2ccccc2)cc1 | – | inconclusive: 10 µM [inhibitor, partial curve] |
| O=C(NC12CC3CC(CC(C3)C1)C2)c1ccc(-c2ccccc2Cl)o1 | – | inconclusive: 12.6 µM [inhibitor, single point] |
| COC(=O)CCn1c(C)cc(C(=O)COc2ccccc2C(N)=O)c1C | – | inconclusive: 3.16 µM [inhibitor, single point] |
| CCOC(=O)c1cc(C#N)c(Oc2ccccc2)nc1-c1ccccc1 | – | inconclusive: 25.1 µM [inhibitor, partial curve] |
| CC(=O)NCC(=O)OCC(=O)N1c2ccccc2Sc2ccccc21 | inactive: 1.55% | – |
| CCCCOCCCNC(=O)c1ccc2c(c1)OCO2 | inactive: -4.41% | – |
| CCCSc1ccc(C(=O)Nc2ccc(F)cc2F)cn1 | – | inconclusive: 39.8 µM [activator, partial curve, poor fit] |
| COc1cc2c(cc1NC(=O)CC1SC(N3CCCC3)=NC1=O)oc1ccccc12 (stereo unspecified) | – | inconclusive: 25.1 µM [activator, partial curve] |
| N/C(=N\NC(=O)c1sccc1OCc1ccc(Cl)cc1Cl)c1ccccn1 | – | active: 1.78 µM |
| Cc1cc(C)c(C#N)c(Sc2ccc(N)cc2)n1 | – | inconclusive: 5.62 µM [activator, single point] |
